Measured values taken from doi:10.1101/2025.02.20.639226, “In vitro reconstitution of minimal human centrosomes” (bioRxiv, 2025).
No constants are given. Whether binding was seen depends on the method and setting.

Sequences of proteins named here, by UniProt entry; tags and fusion partners are left off. A change or cut given only in a name is not applied to a line headed by its entry. A line that says so, or that is headed by a name, gives the form on record, which may keep a tag or linker.
GFP::CDK5RAP2 isoform B (full-length, wild type) (Q96SN8, form named): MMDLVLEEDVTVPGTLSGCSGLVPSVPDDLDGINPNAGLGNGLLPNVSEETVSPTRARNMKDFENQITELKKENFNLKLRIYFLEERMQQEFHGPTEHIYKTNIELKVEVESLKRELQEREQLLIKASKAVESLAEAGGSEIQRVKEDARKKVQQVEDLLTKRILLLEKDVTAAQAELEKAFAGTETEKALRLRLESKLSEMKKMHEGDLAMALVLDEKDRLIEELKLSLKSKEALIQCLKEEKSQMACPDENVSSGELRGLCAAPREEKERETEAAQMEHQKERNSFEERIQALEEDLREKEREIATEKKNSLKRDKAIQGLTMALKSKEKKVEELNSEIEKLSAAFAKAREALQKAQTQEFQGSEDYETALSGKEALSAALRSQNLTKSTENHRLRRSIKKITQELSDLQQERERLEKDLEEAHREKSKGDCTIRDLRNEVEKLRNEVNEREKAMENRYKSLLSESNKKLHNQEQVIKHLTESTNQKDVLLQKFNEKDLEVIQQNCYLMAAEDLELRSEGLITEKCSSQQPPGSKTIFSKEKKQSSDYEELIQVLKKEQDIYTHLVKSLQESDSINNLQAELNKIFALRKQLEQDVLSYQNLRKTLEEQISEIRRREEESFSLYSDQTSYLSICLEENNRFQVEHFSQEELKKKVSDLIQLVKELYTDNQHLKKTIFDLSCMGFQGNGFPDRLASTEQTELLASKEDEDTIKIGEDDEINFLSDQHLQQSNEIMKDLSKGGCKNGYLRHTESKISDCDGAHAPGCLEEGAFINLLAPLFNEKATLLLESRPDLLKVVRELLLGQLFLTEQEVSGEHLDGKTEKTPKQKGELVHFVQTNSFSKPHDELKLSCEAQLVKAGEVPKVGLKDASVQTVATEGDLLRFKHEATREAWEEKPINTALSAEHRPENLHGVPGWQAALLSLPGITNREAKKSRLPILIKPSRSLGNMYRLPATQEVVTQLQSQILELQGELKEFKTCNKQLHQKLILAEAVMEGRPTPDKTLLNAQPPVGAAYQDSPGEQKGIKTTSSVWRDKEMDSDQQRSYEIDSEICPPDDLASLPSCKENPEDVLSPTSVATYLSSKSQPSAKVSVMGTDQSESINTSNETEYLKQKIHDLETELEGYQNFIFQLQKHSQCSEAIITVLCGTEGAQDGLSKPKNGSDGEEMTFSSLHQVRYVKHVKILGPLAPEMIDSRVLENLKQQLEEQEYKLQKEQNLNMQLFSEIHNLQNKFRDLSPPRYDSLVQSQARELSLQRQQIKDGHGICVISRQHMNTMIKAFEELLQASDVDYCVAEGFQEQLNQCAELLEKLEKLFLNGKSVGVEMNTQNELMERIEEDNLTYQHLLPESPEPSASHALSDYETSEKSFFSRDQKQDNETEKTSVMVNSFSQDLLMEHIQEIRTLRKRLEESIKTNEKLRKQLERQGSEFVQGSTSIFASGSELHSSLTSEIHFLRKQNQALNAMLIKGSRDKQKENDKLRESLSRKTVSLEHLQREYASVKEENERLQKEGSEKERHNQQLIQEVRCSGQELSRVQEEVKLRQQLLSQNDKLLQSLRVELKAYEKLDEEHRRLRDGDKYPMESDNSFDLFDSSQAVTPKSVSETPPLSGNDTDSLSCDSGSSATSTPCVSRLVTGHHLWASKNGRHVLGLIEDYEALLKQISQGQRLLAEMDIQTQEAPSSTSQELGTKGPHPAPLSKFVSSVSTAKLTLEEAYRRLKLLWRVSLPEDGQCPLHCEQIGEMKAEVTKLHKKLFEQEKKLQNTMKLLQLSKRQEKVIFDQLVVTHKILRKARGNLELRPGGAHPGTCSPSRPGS

Target: GFP::CDK5RAP2 isoform B (full-length, wild type) (human) (UniProt Q96SN8)
Assay: partitioning into in vitro scaffolds, confocal fluorescence microscopy; GFP::CDK5RAP2 assemblies (120nM) induced with anti-CM2 IgM; mCherry, full-length or ΔIDR mCherry::HSET at 50nM; 50mM KCl, 25mM HEPES; partition coefficient; both purified

binding: no binding (tested: 50nM)
B1: mCherry::HSET(ΔIDR), missing a.a. 2-138 (domain or fragment, UniProt Q9BW19)
chain: MLKGQLCDLNAELKRCRERTQTLDQENQQLQDQLRDAQQQVKALGTERTTLEGHLAKVQAQAEQGQQELKNLRACVLELEERLSTQEGLVQELQKKQVELQEERRGLMSQLEEKERRLQTSEAALSSSQAEVASLRQETVAQAALLTEREERLHGLEMERRRLHNQLQELKGNIRVFCRVRPVLPGEPTPPPGLLLFPSGPGGPSDPPTRLSLSRSDERRGTLSGAPAPPTRHDFSFDRVFPPGSGQDEVFEEIAMLVQSALDGYPVCIFAYGQTGSGKTFTMEGGPGGDPQLEGLIPRALRHLFSVAQELSGQGWTYSFVASYVEIYNETVRDLLATGTRKGQGGECEIRRAGPGSEELTVTNARYVPVSCEKEVDALLHLARQNRAVARTAQNERSSRSHSVFQLQISGEHSSRGLQCGAPLSLVDLAGSERLDPGLALGPGERERLRETQAINSSLSTLGLVIMALSNKESHVPYRNSKLTYLLQNSLGGSAKMLMFVNISPLEENVSESLNSLRFASKVNQCVIGTAQANRK
